Source: article PMC5461520
These are yes or no findings as the source states them, for the method shown. Binding seen in cells or lysates may run through a third protein. Some results given as binding are weak or reduced against the parent protein; the word gives no strength.

Sequences of proteins named here, by UniProt entry; tags and fusion partners are left off. Residues count along the entry.
UniProt P18510, residues 26-177: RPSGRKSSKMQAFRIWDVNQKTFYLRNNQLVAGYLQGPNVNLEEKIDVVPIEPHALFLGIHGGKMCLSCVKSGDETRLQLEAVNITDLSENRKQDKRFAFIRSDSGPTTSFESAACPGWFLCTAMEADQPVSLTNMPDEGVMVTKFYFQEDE

Molecular target: T1, IL-18 receptor alpha unit (human (endogenous in KG-1 and healthy control monocytes)) (UniProt Q13478)
T1 sequence: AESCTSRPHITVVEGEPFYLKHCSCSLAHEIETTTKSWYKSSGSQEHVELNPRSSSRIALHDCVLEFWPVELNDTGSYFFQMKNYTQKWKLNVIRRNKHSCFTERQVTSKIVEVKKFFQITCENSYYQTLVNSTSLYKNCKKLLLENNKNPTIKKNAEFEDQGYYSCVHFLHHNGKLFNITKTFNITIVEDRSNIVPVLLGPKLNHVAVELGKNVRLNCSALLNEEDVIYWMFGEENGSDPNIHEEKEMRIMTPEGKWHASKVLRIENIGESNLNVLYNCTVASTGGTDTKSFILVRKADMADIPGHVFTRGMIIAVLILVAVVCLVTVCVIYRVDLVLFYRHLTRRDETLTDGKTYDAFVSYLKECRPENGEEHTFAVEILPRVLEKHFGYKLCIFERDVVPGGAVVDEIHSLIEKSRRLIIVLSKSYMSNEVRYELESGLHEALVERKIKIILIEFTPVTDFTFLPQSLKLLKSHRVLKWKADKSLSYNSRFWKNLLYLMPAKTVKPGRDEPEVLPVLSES
Experiment: co-IP; IL-18 sensitive myelomonocytic cell line (KG-1) and healthy control monocytes; western blotting and immunoprecipitation; no further conditions given; only the binder purified

binding: binds
Substance: recombinant IL-1 receptor antagonist (rIL-1RA) (from UniProt P18510 26-177) (ligand)
